Test systems include GYPE (human); GYS1 (human); GZMM (human); Galectin-3 (human); Glycoprotein Xg (human).
What all share (test): protein microarray (ProtoArray v5.0), streptavidin-Alexa Fluor 647
Settings in all cases: 3'-biotin; 20 mM Tris (pH 7.5), 5 mM MgCl2, 100 mM KCl, 0.1% Tween-20, A/T-rich and random oligonucleotide blockers; temperature not stated; high values mean tight binding

Assay [1] concerns Gamma-soluble NSF attachment protein (human).
In assay [2] the test system is Ganglioside GM2 activator (human).
For assay [3], the system named is Geranylgeranyl pyrophosphate synthetase (human).
Assay [4] has as its system Glucose-6-phosphate 1-dehydrogenase (human).
Assay [5] concerns Glucose-6-phosphate translocase (human).
Assay [6] deals with Glucose-fructose oxidoreductase domain-containing protein 1 (human).
Assay [7] deals with Glutamate decarboxylase 1 (human).
Assay [8] deals with Glutamate decarboxylase 2 (human).
Assay [9] relates to Glutaminyl-tRNA synthetase (human).
In assay [10] the test system is Glutathione S-transferase A2 (human).
In assay [11] the test system is Glutathione S-transferase A4 (human).
Assay [12] relates to Glutathione S-transferase Mu 5 (human).
The test system of assay [13] is Glycolipid transfer protein (human).
The subject of assay [14] is Glycosyltransferase 1 domain-containing protein 1 (human).
Assay [15] deals with Golgi SNAP receptor complex member 1 (human).

“And” between values parts separate entries of the source, which are not always exact repeats. Equal values may be shown once. The list shows a part of the results.

Turning to “GGGAGGCTGAGGCAGG [G4-1 biotinylated (PQS2)]”, the binding signal in the assay with GYPE (human) was -0.299 z-score; in the assay on GYS1 (human), -0.324 z-score; with GZMM (human) it was -0.265 z-score; in the assay with Galectin-3 (human), -0.349 z-score; in assay [1], -0.333 z-score; in assay [2], -0.346 z-score. For the same sequence, the binding signal in assay [3] is -0.347 z-score; in [4], -0.323 z-score; in assay [5] it was -0.353 z-score; in assay [6], -0.366 z-score; in assay [7] it was -0.336 z-score; in [8], -0.358 z-score. Moreover, the binding signal in assay [9] is -0.352 z-score and -0.37 z-score; in assay [10] it was -0.32 z-score; in [11], -0.358 z-score; in assay [12] it was -0.338 z-score; in [13] it was -0.374 z-score; with Glycoprotein Xg (human), -0.278 z-score. Further, the binding signal in assay [14] is -0.323 z-score; in assay [15], -0.318 z-score.

Values taken from PMC5996148.
